# These are yes or no findings as the source states them, for the method shown. Binding seen in cells or lysates may run through a third protein. Some results given as binding are weak or reduced against the parent protein; the word gives no strength.
# Protein sequences, listed by entry. Tags and fused reporters are not part of them. Lines headed by an entry give the natural chain unless they say otherwise; changes in a name come on top. Chains listed by the source or under a name are the forms on record and can include a tag or linker.
# in vitro-translated, 35S-labeled CD147 (P35613, form named): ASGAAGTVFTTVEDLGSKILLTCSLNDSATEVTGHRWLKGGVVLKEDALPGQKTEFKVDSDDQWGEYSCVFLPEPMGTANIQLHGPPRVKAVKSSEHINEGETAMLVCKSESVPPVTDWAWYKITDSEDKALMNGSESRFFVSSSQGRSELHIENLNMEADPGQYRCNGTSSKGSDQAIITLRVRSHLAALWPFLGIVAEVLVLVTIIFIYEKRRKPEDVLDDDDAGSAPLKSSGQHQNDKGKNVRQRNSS
# UniProt Q96SW2: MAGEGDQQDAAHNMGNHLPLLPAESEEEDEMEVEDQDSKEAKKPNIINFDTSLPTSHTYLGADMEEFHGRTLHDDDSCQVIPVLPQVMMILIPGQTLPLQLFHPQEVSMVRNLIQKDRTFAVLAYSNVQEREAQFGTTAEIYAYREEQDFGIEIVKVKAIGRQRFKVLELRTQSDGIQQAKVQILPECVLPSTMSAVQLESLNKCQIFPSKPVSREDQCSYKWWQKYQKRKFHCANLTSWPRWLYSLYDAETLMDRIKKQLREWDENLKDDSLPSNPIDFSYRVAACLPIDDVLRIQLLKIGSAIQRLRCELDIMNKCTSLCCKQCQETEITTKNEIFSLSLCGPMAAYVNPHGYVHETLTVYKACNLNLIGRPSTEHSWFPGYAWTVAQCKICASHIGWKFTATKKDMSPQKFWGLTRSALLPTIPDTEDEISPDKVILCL
# Target: in vitro-translated, 35S-labeled CD147 (human) (UniProt P35613)
# Assay: pull-down of recombinant GST-CRBN with in vitro-translated 35S-labeled protein, autoradiography (FIG. 16B)
substance,measurement,value
recombinant GST-CRBN (purified GST-Cereblon) (from UniProt Q96SW2 1-442),binding,binds

# Reference: patent US20170296524A1
